The assay addresses miniTurbo–3×FLAG fused to WT CNAα (calcineurin catalytic subunit alpha, PPP3CA) (human) (UniProt Q08209). The assay is described as follows: proximity labelling; miniTurbo–3×FLAG–CNAα (WT or NIRmut) stably expressed in HEK293 Flp-In T-REx cells; 50 μM biotin for 15 min at 37°C; asynchronous, G1/S or mitotic cells; streptavidin purification, mass spectrometry (DDA and DIA), SAINT against miniTurbo–3×FLAG alone, BFDR≤0.01.

Data on one molecule can be found in PMC10163345.

These are yes or no findings as the source states them, for the method shown. Binding seen in cells or lysates may run through a third protein. These calls come from enrichment with a bait or labelling near it, and not all partners need be listed.

B1: PHKA1 (protein, UniProt P46020 1-1223)
chain: MRSRSNSGVRLDGYARLVQQTILCHQNPVTGLLPASYDQKDAWVRDNVYSILAVWGLGLAYRKNADRDEDKAKAYELEQSVVKLMRGLLHCMIRQVDKVESFKYSQSTKDSLHAKYNTKTCATVVGDDQWGHLQLDATSVYLLFLAQMTASGLHIIHSLDEVNFIQNLVFYIEAAYKTADFGIWERGDKTNQGISELNASSVGMAKAALEALDELDLFGVKGGPQSVIHVLADEVQHCQSILNSLLPRASTSKEVDASLLSVVSFPAFAVEDSQLVELTKQEIITKLQGRYGCCRFLRDGYKTPKEDPNRLYYEPAELKLFENIECEWPLFWTYFILDGVFSGNAEQVQEYKEALEAVLIKGKNGVPLLPELYSVPPDRVDEEYQNPHTVDRVPMGKLPHMWGQSLYILGSLMAEGFLAPGEIDPLNRRFSTVPKPDVVVQVSILAETEEIKTILKDKGIYVETIAEVYPIRVQPARILSHIYSSLGCNNRMKLSGRPYRHMGVLGTSKLYDIRKTIFTFTPQFIDQQQFYLALDNKMIVEMLRTDLSYLCSRWRMTGQPTITFPISHSMLDEDGTSLNSSILAALRKMQDGYFGGARVQTGKLSEFLTTSCCTHLSFMDPGPEGKLYSEDYDDNYDYLESGNWMNDYDSTSHARCGDEVARYLDHLLAHTAPHPKLAPTSQKGGLDRFQAAVQTTCDLMSLVTKAKELHVQNVHMYLPTKLFQASRPSFNLLDSPHPRQENQVPSVRVEIHLPRDQSGEVDFKALVLQLKETSSLQEQADILYMLYTMKGPDWNTELYNERSATVRELLTELYGKVGEIRHWGLIRYISGILRKKVEALDEACTDLLSHQKHLTVGLPPEPREKTISAPLPYEALTQLIDEASEGDMSISILTQEIMVYLAMYMRTQPGLFAEMFRLRIGLIIQVMATELAHSLRCSAEEATEGLMNLSPSAMKNLLHHILSGKEFGVERSVRPTDSNVSPAISIHEIGAVGATKTERTGIMQLKSEIKQVEFRRLSISAESQSPGTSMTPSSGSFPSAYDQQSSKDSRQGQWQRRRRLDGALNRVPVGFYQKVWKVLQKCHGLSVEGFVLPSSTTREMTPGEIKFSVHVESVLNRVPQPEYRQLLVEAILVLTMLADIEIHSIGSIIAVEKIVHIANDLFLQEQKTLGADDTMLAKDPASGICTLLYDSAPSGRFGTMTYLSKAAATYVQEFLPHSICAMQ
Consider B1, for which the binding entry was “binds”.
